The supplement of paper PMC10849652
This is one part of the list. Residues, ends and D or L forms follow the SMILES beside them. *: point of attachment. Cbz = O=C(OCc1ccccc1)*

Sequences of proteins named here, by UniProt entry; tags and fusion partners are left off. A change or cut given only in a name is not applied to a line headed by its entry.
UniProt Q9NWZ5: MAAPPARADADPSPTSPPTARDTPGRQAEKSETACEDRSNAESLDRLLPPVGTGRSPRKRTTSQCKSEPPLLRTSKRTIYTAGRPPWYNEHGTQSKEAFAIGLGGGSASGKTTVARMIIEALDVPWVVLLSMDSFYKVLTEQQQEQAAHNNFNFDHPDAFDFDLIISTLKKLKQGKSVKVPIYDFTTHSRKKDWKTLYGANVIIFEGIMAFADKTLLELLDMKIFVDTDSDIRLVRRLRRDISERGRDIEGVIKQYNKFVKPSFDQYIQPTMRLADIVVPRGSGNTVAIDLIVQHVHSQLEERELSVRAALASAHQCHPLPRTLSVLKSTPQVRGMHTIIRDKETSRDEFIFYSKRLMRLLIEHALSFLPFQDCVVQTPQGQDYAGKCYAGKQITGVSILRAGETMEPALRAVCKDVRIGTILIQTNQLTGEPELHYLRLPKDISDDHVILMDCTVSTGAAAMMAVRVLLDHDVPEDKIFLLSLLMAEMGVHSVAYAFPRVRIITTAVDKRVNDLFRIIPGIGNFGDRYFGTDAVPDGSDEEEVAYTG
UniProt Q9NYU2: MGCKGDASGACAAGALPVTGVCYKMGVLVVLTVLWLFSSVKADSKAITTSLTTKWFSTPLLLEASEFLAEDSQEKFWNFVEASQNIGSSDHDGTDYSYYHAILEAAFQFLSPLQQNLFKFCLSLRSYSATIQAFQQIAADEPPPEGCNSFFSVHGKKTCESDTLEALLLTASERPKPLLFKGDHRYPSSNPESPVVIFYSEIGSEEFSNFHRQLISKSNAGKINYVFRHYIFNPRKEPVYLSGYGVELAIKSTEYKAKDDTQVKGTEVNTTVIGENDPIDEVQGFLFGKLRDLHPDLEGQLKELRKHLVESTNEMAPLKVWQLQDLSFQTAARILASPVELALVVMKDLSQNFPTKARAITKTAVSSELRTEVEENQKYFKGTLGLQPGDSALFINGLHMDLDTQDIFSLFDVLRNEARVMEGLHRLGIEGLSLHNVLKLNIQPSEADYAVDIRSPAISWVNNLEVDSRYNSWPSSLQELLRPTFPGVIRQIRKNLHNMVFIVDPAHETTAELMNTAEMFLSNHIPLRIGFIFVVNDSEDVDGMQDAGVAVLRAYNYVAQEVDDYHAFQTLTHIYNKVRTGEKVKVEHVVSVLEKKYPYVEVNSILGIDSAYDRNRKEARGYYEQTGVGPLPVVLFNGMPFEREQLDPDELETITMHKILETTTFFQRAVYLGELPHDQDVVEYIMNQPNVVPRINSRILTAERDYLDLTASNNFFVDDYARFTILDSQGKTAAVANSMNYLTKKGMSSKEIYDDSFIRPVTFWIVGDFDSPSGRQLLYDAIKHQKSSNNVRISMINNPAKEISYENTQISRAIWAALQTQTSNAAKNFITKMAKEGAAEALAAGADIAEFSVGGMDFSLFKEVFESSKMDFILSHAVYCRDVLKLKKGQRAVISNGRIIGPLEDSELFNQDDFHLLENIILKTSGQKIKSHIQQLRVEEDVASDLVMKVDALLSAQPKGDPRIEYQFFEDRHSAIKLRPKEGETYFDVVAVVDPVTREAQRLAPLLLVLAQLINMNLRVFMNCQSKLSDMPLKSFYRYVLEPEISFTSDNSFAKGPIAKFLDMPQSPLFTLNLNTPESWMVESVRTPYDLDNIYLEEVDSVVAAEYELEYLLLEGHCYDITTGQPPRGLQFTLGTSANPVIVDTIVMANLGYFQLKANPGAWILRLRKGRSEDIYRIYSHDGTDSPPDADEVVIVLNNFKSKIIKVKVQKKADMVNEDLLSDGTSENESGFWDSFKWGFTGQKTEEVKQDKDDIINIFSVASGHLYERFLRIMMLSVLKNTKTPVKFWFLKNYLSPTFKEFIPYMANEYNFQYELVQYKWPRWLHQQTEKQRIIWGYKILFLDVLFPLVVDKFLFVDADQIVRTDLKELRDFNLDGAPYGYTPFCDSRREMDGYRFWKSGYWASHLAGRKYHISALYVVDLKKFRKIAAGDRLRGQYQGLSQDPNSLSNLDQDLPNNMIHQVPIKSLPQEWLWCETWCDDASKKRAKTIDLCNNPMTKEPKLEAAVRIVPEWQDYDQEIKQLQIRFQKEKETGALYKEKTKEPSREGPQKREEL
UniProt Q9UMX0, whole entry, looked up: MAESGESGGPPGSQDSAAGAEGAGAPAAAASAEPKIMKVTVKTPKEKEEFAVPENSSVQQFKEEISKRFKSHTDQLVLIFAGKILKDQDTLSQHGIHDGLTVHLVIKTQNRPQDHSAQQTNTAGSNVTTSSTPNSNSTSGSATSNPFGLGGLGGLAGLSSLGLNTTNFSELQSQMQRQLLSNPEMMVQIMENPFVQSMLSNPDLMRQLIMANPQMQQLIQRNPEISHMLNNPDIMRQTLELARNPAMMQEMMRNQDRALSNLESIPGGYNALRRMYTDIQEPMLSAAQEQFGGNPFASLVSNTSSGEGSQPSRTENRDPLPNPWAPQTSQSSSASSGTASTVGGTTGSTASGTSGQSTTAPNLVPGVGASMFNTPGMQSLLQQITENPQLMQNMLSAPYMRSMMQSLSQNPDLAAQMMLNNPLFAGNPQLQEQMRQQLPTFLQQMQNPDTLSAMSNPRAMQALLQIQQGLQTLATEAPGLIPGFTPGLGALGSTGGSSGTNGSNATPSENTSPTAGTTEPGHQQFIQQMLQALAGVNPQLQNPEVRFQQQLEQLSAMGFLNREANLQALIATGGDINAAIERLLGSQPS
UniProt Q15386: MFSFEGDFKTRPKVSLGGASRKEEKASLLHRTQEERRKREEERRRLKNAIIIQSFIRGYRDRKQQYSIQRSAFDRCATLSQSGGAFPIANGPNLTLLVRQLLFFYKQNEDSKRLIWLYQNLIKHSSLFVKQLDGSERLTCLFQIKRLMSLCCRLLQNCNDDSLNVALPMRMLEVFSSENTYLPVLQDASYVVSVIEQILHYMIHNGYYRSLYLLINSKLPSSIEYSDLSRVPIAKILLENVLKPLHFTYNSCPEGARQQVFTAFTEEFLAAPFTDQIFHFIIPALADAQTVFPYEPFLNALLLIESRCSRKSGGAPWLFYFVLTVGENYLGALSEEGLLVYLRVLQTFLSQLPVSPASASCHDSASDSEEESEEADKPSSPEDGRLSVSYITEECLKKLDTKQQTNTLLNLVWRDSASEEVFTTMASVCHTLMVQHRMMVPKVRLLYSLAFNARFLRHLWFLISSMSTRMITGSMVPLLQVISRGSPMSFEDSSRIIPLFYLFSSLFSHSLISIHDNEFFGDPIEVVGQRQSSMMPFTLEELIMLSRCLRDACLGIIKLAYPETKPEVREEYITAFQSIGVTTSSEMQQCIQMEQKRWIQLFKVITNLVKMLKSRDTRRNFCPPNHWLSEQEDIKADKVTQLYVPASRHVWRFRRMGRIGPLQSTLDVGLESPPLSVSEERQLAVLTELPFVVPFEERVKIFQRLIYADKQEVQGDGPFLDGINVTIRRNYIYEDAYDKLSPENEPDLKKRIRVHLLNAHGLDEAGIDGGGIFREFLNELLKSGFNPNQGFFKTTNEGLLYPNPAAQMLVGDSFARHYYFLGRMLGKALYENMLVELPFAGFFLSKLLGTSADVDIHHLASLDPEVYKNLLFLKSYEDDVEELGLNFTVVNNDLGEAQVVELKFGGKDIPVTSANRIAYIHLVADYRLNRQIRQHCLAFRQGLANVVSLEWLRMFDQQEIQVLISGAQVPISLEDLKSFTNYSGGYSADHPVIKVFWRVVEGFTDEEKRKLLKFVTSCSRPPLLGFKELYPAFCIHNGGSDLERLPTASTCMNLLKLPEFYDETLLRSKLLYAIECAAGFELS
UniProt O14949: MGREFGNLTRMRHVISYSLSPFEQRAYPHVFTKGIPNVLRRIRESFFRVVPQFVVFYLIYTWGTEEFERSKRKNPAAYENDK
UniProt P22695: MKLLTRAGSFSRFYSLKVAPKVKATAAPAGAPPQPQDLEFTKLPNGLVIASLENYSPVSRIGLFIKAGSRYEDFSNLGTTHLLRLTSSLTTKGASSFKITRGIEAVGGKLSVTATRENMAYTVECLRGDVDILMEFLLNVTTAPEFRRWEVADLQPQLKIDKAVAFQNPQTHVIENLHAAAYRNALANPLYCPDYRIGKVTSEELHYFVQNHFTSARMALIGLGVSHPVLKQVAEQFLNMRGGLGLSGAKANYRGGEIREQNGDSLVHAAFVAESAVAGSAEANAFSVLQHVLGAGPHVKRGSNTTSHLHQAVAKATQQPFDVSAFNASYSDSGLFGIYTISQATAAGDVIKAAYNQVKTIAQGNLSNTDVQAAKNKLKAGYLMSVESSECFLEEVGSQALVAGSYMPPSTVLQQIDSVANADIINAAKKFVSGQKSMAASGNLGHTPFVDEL
UniProt Q9P0L0: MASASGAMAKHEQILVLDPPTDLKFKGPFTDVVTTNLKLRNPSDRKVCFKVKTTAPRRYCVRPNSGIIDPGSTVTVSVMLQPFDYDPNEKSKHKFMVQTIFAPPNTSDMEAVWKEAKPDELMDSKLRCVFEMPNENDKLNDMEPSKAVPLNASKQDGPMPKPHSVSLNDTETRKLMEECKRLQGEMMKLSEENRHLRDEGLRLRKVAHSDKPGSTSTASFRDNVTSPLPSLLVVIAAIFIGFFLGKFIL
UniProt Q9UHD9, whole entry, looked up: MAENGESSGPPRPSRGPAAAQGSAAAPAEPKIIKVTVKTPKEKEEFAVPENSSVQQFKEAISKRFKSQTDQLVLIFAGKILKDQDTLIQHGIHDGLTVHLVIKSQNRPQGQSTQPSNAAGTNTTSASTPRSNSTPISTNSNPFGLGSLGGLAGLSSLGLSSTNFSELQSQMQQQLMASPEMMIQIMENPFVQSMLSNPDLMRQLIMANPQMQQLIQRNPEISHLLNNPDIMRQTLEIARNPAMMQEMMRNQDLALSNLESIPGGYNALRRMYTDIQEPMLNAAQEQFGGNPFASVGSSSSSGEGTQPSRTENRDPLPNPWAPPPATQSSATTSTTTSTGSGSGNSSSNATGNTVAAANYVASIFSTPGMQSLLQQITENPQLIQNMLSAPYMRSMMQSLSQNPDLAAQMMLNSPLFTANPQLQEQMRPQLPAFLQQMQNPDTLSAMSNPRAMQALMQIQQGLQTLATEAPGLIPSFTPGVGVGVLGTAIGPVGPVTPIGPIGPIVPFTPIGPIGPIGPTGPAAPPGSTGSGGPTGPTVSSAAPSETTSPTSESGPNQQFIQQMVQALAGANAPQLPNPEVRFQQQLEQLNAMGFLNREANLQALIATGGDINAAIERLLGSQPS
UniProt Q9Y3C8: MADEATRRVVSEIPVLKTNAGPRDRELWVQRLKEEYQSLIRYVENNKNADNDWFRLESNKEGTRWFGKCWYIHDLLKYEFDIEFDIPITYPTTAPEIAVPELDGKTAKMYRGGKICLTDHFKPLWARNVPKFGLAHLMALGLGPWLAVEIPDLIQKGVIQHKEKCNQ
UniProt Q92995: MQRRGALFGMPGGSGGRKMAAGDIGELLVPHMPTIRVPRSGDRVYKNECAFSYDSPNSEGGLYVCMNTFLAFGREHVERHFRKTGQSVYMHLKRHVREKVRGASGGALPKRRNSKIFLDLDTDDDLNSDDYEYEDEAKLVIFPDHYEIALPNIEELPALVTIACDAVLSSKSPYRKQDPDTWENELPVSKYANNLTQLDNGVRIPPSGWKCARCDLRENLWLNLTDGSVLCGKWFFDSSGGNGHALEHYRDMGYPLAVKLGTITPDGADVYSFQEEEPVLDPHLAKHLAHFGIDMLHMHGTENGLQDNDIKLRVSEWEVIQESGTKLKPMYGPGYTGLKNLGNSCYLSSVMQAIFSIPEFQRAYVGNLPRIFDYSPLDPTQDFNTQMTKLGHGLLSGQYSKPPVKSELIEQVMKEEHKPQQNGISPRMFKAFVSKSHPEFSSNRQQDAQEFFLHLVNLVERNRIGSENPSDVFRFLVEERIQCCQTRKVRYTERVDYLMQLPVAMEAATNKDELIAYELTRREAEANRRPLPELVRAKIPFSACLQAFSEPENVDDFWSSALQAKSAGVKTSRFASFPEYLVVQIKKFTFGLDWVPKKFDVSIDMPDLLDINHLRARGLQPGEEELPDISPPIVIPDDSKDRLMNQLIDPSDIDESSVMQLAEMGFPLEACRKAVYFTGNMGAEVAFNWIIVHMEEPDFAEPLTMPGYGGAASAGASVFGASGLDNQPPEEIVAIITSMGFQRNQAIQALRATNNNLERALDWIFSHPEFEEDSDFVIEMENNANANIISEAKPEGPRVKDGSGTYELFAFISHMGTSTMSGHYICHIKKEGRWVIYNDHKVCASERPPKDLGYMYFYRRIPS
UniProt Q8WVY7: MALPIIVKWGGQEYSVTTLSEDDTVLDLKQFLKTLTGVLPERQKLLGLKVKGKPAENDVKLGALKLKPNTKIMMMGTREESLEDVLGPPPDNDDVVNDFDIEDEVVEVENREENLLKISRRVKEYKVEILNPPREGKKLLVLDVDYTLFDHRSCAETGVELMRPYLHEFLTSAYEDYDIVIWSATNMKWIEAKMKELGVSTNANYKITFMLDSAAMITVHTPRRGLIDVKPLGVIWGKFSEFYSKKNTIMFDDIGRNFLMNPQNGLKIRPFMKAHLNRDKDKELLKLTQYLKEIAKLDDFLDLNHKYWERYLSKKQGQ

Key:
Test in all cases: log2 fold change, soluble protein after heating vs DMSO (PISA); higher = thermal stabilisation; K562 cells, 10 uM, 30 min; active = over 0.2 and 3.5 SD of the protein, either way, in both replicates (recomputed)
IRAK-1-4 Inhibitor I = compound: C1COCCN1CCN2C3=CC=CC=C3N=C2NC(=O)C4=CC(=CC=C4)[N+](=O)[O-] [IRAK-1-4 Inhibitor I]
Procedure, shortened: (§1)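 Quantification of soluble protein used TMTpro 16plex LC-MS/MS, with channel sums equalised. Samples were the supernatant after 21,000xg for 90 min of pooled aliquots from K562 cells (2×10^6 cells/mL) treated with 10 μM compound for 30 min, heated for 3 min over 48°C-58°C, and extracted in PBS with 0.5% NP-40 at 4°C. Values, from duplicates, describe thermal stability against control samples on a log2 fold-change scale.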

ibrutinib = compound: C=CC(=O)N1CCC[C@@H](n2nc(-c3ccc(Oc4ccccc4)cc3)c3c(N)ncnc32)C1 [ibrutinib]
Procedure, shortened: as §1

[1] = compound: CC(=O)c1cnc2ccc(-c3cc(Cl)c(O)c(Cl)c3)nc2c1N[C@H]1CC[C@H](CN(C)C)CC1
Procedure, shortened: as §1

ralimetinib = compound: CC(C)(C)Cn1c(N)nc2ccc(-c3[nH]c(C(C)(C)C)nc3-c3ccc(F)cc3)nc21 [ralimetinib]
Procedure, shortened: as §1

[2] = compound: CC(C)(O)CC(=O)NCCn1ccc2ncnc(Nc3ccc(Oc4cccc(C(F)(F)F)c4)c(Cl)c3)c21
Procedure, shortened: as §1

[3] = compound: CC(C)C1=C2N=C(C=C(N2N=C1)NCC3=CC=CC=C3)NCCCCCCN
Procedure, shortened: as §1

[4] = compound: CC(C)C[C@@H](C=O)NC(=O)[C@H](CC(C)C)NC(=O)[C@H](CC(C)C)NC(=O)OCc1ccccc1
Procedure, shortened: as §1

pinometostat = compound: CC(C)N(C[C@H]1O[C@@H](n2cnc3c(N)ncnc32)[C@H](O)[C@@H]1O)[C@H]1C[C@@H](CCc2nc3cc(C(C)(C)C)ccc3[nH]2)C1 [pinometostat]
Procedure, shortened: as §1

[5] = compound: CC1=C(C(CC(=O)N1)C2=CC=C(C=C2)C(F)(F)F)C(=O)NC3=C(C=C4C(=C3)C=NN4)F
Procedure, shortened: as §1

[6] = compound: CC1=C(C2=C(C=C1)C(=O)C3=CC=CC=C3N2CCCN)C
Procedure, shortened: as §1

Target	log2 fold change (IRAK-1-4 Inhibitor I)	log2 fold change (ibrutinib)	log2 fold change [1]	log2 fold change (ralimetinib)	log2 fold change [2]	log2 fold change [3]	log2 fold change [4]	log2 fold change (pinometostat)	log2 fold change [5]	log2 fold change [6]
UCKL1 (UniProt Q9NWZ5)	inactive: -0.084	inactive: 0.019	inactive: 0.028	inactive: 0.064	inactive: -0.047	inactive: -0.059	inactive: -0.049	inactive: 0.006	inactive: -0.051	inactive: 0.102
UGGT1 (UniProt Q9NYU2)	inactive: -0.011	inactive: -0.027	inactive: 0.001	inactive: 0.001	inactive: -0.028	inactive: -0.007	inactive: -0.038	inactive: 0.028	–	inactive: 0.023
UBR5 (UniProt O95071)	inactive: -0.057	inactive: -0.034	inactive: -0.002	inactive: 0.056	inactive: 0.022	inactive: -0.042	inactive: 0.041	inactive: 0.046	inactive: 0.078	inactive: -0.183
UBR7 (UniProt Q8N806)	inactive: 0.049	inactive: -0.02	inactive: -0.042	inactive: -0.048	inactive: 0.055	inactive: 0.09	inactive: -0.004	inactive: -0.003	inactive: -0.016	inactive: -0.033
UBQLN4 (UniProt Q9NRR5)	inactive: -0.015	inactive: 0.03	inactive: 0.043	inactive: 0.043	inactive: -0.078	inactive: 0.084	inactive: -0.014	inactive: -0.077	inactive: 0.025	inactive: 0.05
UBQLN1 (UniProt Q9UMX0)	inactive: 0.034	inactive: 0.054	inactive: 0	inactive: 0.019	inactive: 0.045	inactive: 0.104	inactive: -0.004	inactive: -0.082	inactive: -0.031	inactive: 0.019
UROS (UniProt P10746)	inactive: 0.096	inactive: -0.042	inactive: -0.011	inactive: 0.013	inactive: -0.038	inactive: -0.014	inactive: 0.053	inactive: 0.062	inactive: -0.031	inactive: 0.041
UBE3C (UniProt Q15386)	inactive: 0.019	inactive: 0.006	inactive: -0.031	inactive: 0.012	inactive: -0.086	inactive: -0.012	inactive: 0.027	inactive: 0.013	inactive: -0.034	inactive: 0.034
UROD (UniProt P06132)	inactive: 0.032	inactive: 0.019	inactive: 0.022	inactive: 0.003	inactive: 0.014	inactive: 0.05	inactive: 0.077	inactive: -0.068	inactive: -0.023	inactive: 0.047
UBR4 isoform 2 (UniProt Q5T4S7)	inactive: -0.064	inactive: -0.038	inactive: 0.049	inactive: 0.089	inactive: 0	inactive: -0.158	inactive: 0.056	inactive: 0.138	inactive: 0.017	inactive: 0.025
VAT1 (UniProt Q99536)	inactive: 0.021	inactive: 0.071	inactive: -0.035	inactive: -0.013	inactive: 0.081	inactive: 0.107	inactive: -0.028	inactive: -0.058	inactive: -0.012	inactive: -0.003
UQCRQ (UniProt O14949)	inactive: 0.064	inactive: 0.02	inactive: 0.039	inactive: -0.031	inactive: 0.044	inactive: 0.053	inactive: -0.052	inactive: 0.001	inactive: -0.023	inactive: 0.001
UXS1 isoform 2 (UniProt Q8NBZ7)	inactive: -0.071	inactive: -0.026	inactive: 0.032	inactive: -0.001	inactive: -0.01	inactive: 0.064	inactive: 0.059	inactive: 0.054	inactive: -0.073	inactive: 0.04
UQCRC2 (UniProt P22695)	inactive: 0.042	inactive: 0.001	inactive: -0.008	inactive: 0	inactive: -0.045	inactive: 0.004	inactive: -0.019	inactive: -0.034	inactive: -0.007	inactive: 0.028
VCP (UniProt P55072)	inactive: 0.046	inactive: 0.009	inactive: 0.029	inactive: -0.004	inactive: 0.013	inactive: 0.069	inactive: -0.045	inactive: -0.004	inactive: 0.027	inactive: -0.013
VAPA (UniProt Q9P0L0)	inactive: 0.017	inactive: -0.159	inactive: 0	inactive: -0.059	inactive: -0.018	inactive: -0.035	inactive: -0.008	inactive: -0.061	inactive: 0.011	inactive: 0.022
USP19 isoform 6 (UniProt O94966)	inactive: 0.031	inactive: -0.02	inactive: -0.013	inactive: -0.006	inactive: -0.038	inactive: -0.006	inactive: 0.008	inactive: -0.025	inactive: 0	inactive: 0.02
UBQLN2 (UniProt Q9UHD9)	inactive: 0.051	inactive: 0.011	inactive: -0.006	inactive: 0.003	inactive: 0.001	inactive: 0.076	inactive: -0.038	inactive: -0.024	inactive: -0.012	inactive: 0.094
UFC1 (UniProt Q9Y3C8)	inactive: 0.005	inactive: 0.003	inactive: 0.039	inactive: -0.074	inactive: -0.005	inactive: 0.068	inactive: -0.057	inactive: -0.064	inactive: 0.069	inactive: -0.034
USP13 (UniProt Q92995)	inactive: 0.031	inactive: -0.054	inactive: 0.11	inactive: 0.066	–	inactive: -0.013	inactive: -0.122	inactive: -0.113	inactive: -0.056	inactive: -0.069
UBLCP1 (UniProt Q8WVY7)	inactive: -0.029	inactive: -0.072	inactive: -0.057	inactive: -0.104	inactive: -0.061	inactive: -0.027	inactive: 0.191	inactive: 0.017	–	inactive: -0.155
UGDH (UniProt O60701)	inactive: -0.019	inactive: 0.03	active: -0.616	inactive: -0.046	inactive: -0.038	inactive: 0.017	inactive: -0.043	inactive: -0.105	–	inactive: 0.078
UBXN10 (UniProt Q96LJ8)	inactive: 0.027	inactive: 0.054	–	inactive: -0.045	inactive: -0.145	inactive: -0.017	inactive: 0.038	inactive: 0.058	–	inactive: 0.085
UBE4B isoform 4 (UniProt O95155)	inactive: 0.008	inactive: -0.031	inactive: 0.006	inactive: 0.057	inactive: -0.117	inactive: -0.041	inactive: 0.047	inactive: 0	–	inactive: -0.005
UFD1 isoform 1 (UniProt Q92890)	inactive: 0.025	inactive: -0.018	inactive: -0.005	inactive: 0	inactive: -0.04	inactive: 0.04	inactive: 0.021	inactive: -0.04	–	inactive: 0
UXT isoform 2 (UniProt Q9UBK9)	inactive: 0.103	inactive: -0.033	inactive: -0.019	inactive: -0.031	inactive: -0.005	inactive: 0.316	inactive: 0.082	inactive: -0.141	–	inactive: 0.194
UBR2 (UniProt Q8IWV8)	inactive: 0.002	inactive: -0.102	inactive: -0.11	inactive: 0.029	inactive: -0.086	inactive: -0.058	active: 0.351	inactive: 0.137	–	inactive: 0.076
UFL1 (UniProt O94874)	inactive: -0.048	inactive: -0.037	inactive: -0.022	inactive: 0.073	inactive: -0.055	inactive: -0.142	inactive: 0.015	inactive: 0.042	–	inactive: 0.026

A second format for part of the listing above.
Target,log2 fold change (IRAK-1-4 Inhibitor I),log2 fold change (ibrutinib),log2 fold change [1],log2 fold change (ralimetinib),log2 fold change [2],log2 fold change [3],log2 fold change [4],log2 fold change (pinometostat),log2 fold change [5],log2 fold change [6]
UBR5 (UniProt O95071),inactive: -0.057,inactive: -0.034,inactive: -0.002,inactive: 0.056,inactive: 0.022,inactive: -0.042,inactive: 0.041,inactive: 0.046,inactive: 0.078,inactive: -0.183
UBE3C (UniProt Q15386),inactive: 0.019,inactive: 0.006,inactive: -0.031,inactive: 0.012,inactive: -0.086,inactive: -0.012,inactive: 0.027,inactive: 0.013,inactive: -0.034,inactive: 0.034
UROD (UniProt P06132),inactive: 0.032,inactive: 0.019,inactive: 0.022,inactive: 0.003,inactive: 0.014,inactive: 0.05,inactive: 0.077,inactive: -0.068,inactive: -0.023,inactive: 0.047
UBR4 isoform 2 (UniProt Q5T4S7),inactive: -0.064,inactive: -0.038,inactive: 0.049,inactive: 0.089,inactive: 0,inactive: -0.158,inactive: 0.056,inactive: 0.138,inactive: 0.017,inactive: 0.025
UQCRC2 (UniProt P22695),inactive: 0.042,inactive: 0.001,inactive: -0.008,inactive: 0,inactive: -0.045,inactive: 0.004,inactive: -0.019,inactive: -0.034,inactive: -0.007,inactive: 0.028
USP13 (UniProt Q92995),inactive: 0.031,inactive: -0.054,inactive: 0.11,inactive: 0.066,–,inactive: -0.013,inactive: -0.122,inactive: -0.113,inactive: -0.056,inactive: -0.069
UGDH (UniProt O60701),inactive: -0.019,inactive: 0.03,active: -0.616,inactive: -0.046,inactive: -0.038,inactive: 0.017,inactive: -0.043,inactive: -0.105,–,inactive: 0.078
